Assay results published in PubChem BioAssay AID2417 (National Center for Advancing Translational Sciences (NCATS), 2010).
The campaign covered roughly 140,000 compounds. About 4,300 (3.1%) were called active. This list was built around the results that the source calls inconclusive (neither active nor inactive); the mix of calls is not that of the screen.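 Rule for the calls: active = readout at or below -70, meaning at least 70% loss of cells showing the perinucleolar compartment, a nuclear body marking cancer cells; inconclusive = readout between -30 and a set limit; inactive = the rest.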

Test: High Content Assay for Compounds that inhibit the Assembly of the Perinucleolar Compartment;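 note: plate controls were DMSO wells for no effect and camptothecin positive control wells for full effect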
Conditions: PC3M PTB-GFP, PNC prevalence imaging, 16 h; at 10 µM; stronger effect = lower value
Method in brief: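 Read-out is percentage of cells bearing a perinucleolar compartment, from automated 20x imaging of fixed, Hoechst-stained PC3M PTB-GFP cells. Cells were seeded 4 h, then exposed 16 h to compound (23 nl of library stock) in duplicate plates.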

Compound | activity change (PNC), negative = inhibition
O=C(Cc1cn2ccsc2n1)NCCc1ccc(F)cc1 | inconclusive: -45%
Cc1cc(C)nc(SCc2cc(=O)c(OC(=O)c3ccc(Cl)c([N+](=O)[O-])c3)co2)n1 | inactive: 15.9%
COC(=O)CSc1ncnc2c1sc1nc(-c3ccco3)c3c(c12)CC(C)(C)OC3 | inactive: 24.1%
CCn1c2c(c(=N)c3c1CCC3)CCC2 | inconclusive: -49%
CCS(=O)(=O)N1Cc2ccccc2CC1C(=O)Nc1nnc(SCc2c(Cl)cccc2Cl)s1 (centres undefined) | inconclusive: -55.6%
CC(C)C(C)NC(=O)CSc1nc2scc(-c3ccco3)c2c(=O)n1-c1ccccc1 (centres undefined) | inactive: -28.3%
O=C(C1CCCO1)N1CCN(c2ccc(F)cc2)CC1 (centres undefined) | inconclusive: -50.4%
O=C(COC(=O)/C=C/c1ccc(Cl)cc1)NCCC1=CCCCC1 | active: -89.6%
CCc1nc(SCC(=O)N2c3ccccc3Sc3ccccc32)c2ccccc2n1 | inconclusive: -31.8%
CCC(CC)C(=O)Nc1cc([N+](=O)[O-])ccc1F | inactive: 10.4%
COc1cc(-c2nnc(SCc3cc(=O)oc4cc(C)ccc34)o2)cc(OC)c1OC | inactive: 6.06%
Fc1ccc(-n2c(Cc3ccccc3)nnc2SCc2nc(-c3cccs3)no2)cc1 | inconclusive: -41.4%
CSC(=O)NC12CC3CC(CC(C)(C3)C1)C2 | inconclusive: -31.1%
O=S(=O)(NCc1ccco1)c1cccc(S(=O)(=O)N2CCOCC2)c1 | inactive: 12.7%
CCn1ncc(CNC(=O)C2(C)CC2(Cl)Cl)c1C (centres undefined) | inconclusive: -37%
CC(C)C(=O)NCCc1c[nH]c2ccccc12 | active: -124%
C/C(=N\NC(=O)CC1(C)OCCO1)c1cccs1 | active: -88.4%
Cc1csc(NC(=O)Cc2nn(C)c(=O)c3ccccc23)n1 | inactive: 31.7%
Cc1ccc(S(=O)(=O)/N=C2/NC(=O)/C(=C/c3ccc(Br)o3)S2)cc1 | inconclusive: -71.7%
CC(C)(C)c1ccc(/C=C/C(=O)Nc2ccncc2)cc1 | inactive: 41.7%

5 structures out of the list, ordered by molecular weight, largest number first.
Compound | activity change (PNC), negative = inhibition
Cc1csc(NC(=O)Cc2nn(C)c(=O)c3ccccc23)n1 | inactive: 31.7%
O=C(Cc1cn2ccsc2n1)NCCc1ccc(F)cc1 | inconclusive: -45%
CCn1ncc(CNC(=O)C2(C)CC2(Cl)Cl)c1C (centres undefined) | inconclusive: -37%
CCC(CC)C(=O)Nc1cc([N+](=O)[O-])ccc1F | inactive: 10.4%
CC(C)C(=O)NCCc1c[nH]c2ccccc12 | active: -124%

Later entries.

Compound | activity change (PNC), negative = inhibition
COC(CCN(C)C)(c1ccccc1)c1ccccc1 | inconclusive: -35.6%
CC(C)(C)NC(=O)C(=O)NNC(=O)c1ccc(C(C)(C)C)cc1 | inconclusive: -79.8%
CCc1nnc(NC(=O)CN2C(=O)c3ccccc3S2(=O)=O)s1 | inconclusive: -44.5%
OC(CN1c2ccccc2Sc2ccccc21)Cn1nnc2ccccc21 (centres undefined) | inconclusive: -37.3%
COc1cc(S(=O)(=O)NC2CCCCC2)ccc1F | inconclusive: -35.5%
COc1cc(S(=O)(=O)Nc2c(C)cc(C)cc2C)ccc1Cl | inconclusive: -32.4%
O=C(O)C1C2C=CC(O2)C1C(=O)NCCC1=CCCCC1 (centres undefined) | inconclusive: -37.2%
CCOC(=O)c1c(C)n(C)c2ccc(OC)c(NC(=O)CCN3CCSCC3)c12 | inconclusive: -74.8%
CC(C)(C)C(=O)NC1(C(F)(F)F)N=C2SCCN2C1=O (centres undefined) | inconclusive: -44.1%
Cc1nc(COC(=O)c2ccc(S(=O)(=O)N3CCCC3)cc2)cs1 | inconclusive: -49%
CCNC(=S)N1CCN(c2ccc([N+](=O)[O-])cc2)CC1 | inactive: 13.5%
CC(C)OC(=O)CSc1nnc(-c2cccnc2)n1N | inactive: 17.8%
O=S(=O)(NCC1CC1)c1cccc(S(=O)(=O)N2CCCC2)c1 | inconclusive: -64.8%
Cc1nc2ccccc2c(=O)n1NS(C)(=O)=O | active: -112%
COc1ccc(N2CCN(C3CC(=O)N(c4ccc5c(c4)OCCO5)C3=O)CC2)cc1 (centres undefined) | active: -84.9%
c1ccc(Nc2nc3ccccc3[nH]2)nc1 | inconclusive: -46.8%
CCOc1ccc(S(=O)(=O)Nc2nc3ccccc3nc2-n2ccc(=NC(=O)c3cccs3)cc2)cc1 | inconclusive: -41.9%
Oc1cccc2c(NC(=S)Nc3ccc(OC(F)F)cc3)cccc12 | inactive: 115%
CC1CCN(c2c(NCC3CCC(C(=O)NCCc4ccccc4)CC3)c(=O)c2=O)CC1 (centres undefined) | inconclusive: -62.3%
Cc1cc2oc(=O)cc(CN3CCN(Cc4ccc5c(c4)OCO5)CC3)c2cc1C | inactive: 43.7%

Compound | activity change (PNC), negative = inhibition
COc1ccccc1C(=O)NC(=S)NNC(=O)c1sc2ccccc2c1Cl | inconclusive: -51.3%
CCn1c2ccccc2c2cc(NC(=O)c3ccco3)ccc21 | inactive: -19.2%
COC(=O)c1ccc2nc(C)cc(Nc3ccc(N(C)C)cc3)c2c1 | active: -119%
Clc1ccc2nnnc(-c3ccccc3)c2c1 | active: -97.6%
CSc1nnc(CSc2cc(C)nc(N(C)C)n2)o1 | inconclusive: -56.1%
COCCn1c(SCc2cccnc2)nnc1-c1c[nH]c2ccccc12 | inconclusive: -74.7%
Cc1c(C(=O)NCc2ccc3c(c2)OCO3)oc2ccc(S(=O)(=O)N3CCCCCC3)cc12 | inconclusive: -67.1%
CC(=O)N(Cc1ccco1)C1(C(=O)NC2CCCC2)CCCCC1 | inactive: -11.9%
CCN1C(=O)/C(=C\N2CCCCCC2)SC1=S | inactive: 14%
COc1ccc(C(=O)c2cnc(/N=C/N(C)C)s2)cc1 | inconclusive: -34.5%
CCOC(=O)c1ccc(NC(=S)N2CCSC2c2c(F)cc(F)cc2F)cc1 (centres undefined) | inconclusive: -53.8%
Cc1nn2c(-n3ccnc3)c3c(nc2c1-c1ccccc1)CCC3 | inconclusive: -69.3%
Cc1ccn2cc(CNC(=O)c3ccc(Br)o3)nc2c1 | inactive: -18.9%
CCOC(=O)N1CCN(C(=O)CSCC(=O)Nc2nc(-c3ccc(OC)cc3)cs2)CC1 | inactive: 11.6%
COc1ccc(-c2sc(NC(C)=O)nc2-c2ccccc2)cc1 | inconclusive: -36.4%
O=C(N/N=C\CCc1ccccc1)c1ccco1 | inconclusive: -50%
NC(=O)CSc1nc2cc3c(cc2c(=O)n1CCCC(=O)NCc1ccc2c(c1)OCO2)OCO3 | inconclusive: -35.1%
CC(C)(C)NC(=O)CSC(=Nc1ccccc1F)NC#N | inconclusive: -60.2%
O=c1cc(N2CCN(c3ccccc3)CC2)[nH]c(=O)n1-c1ccccc1Cl | inconclusive: -39.7%
